# Source: PubChem BioAssay AID248 (DTP/NCI, 2004)
# The list is a part of this screen's results and no random one: it gathers tests that were run many times, whatever their T/C, doses with no T/C, and many T/C values between a quarter and a half above the control. Other doses and runs of a compound stand elsewhere. T/C gives the treated animals as a percentage of the vehicle group. Some doses have a count of surviving animals in place of a T/C: the source holds a T/C of zero for them, seemingly a mark for toxic or unscored doses. Some survivor counts are full or nearly so, which does not show that the dose was tolerated: survival well below the control is almost never listed, so the zero probably covers shortened survival too. Counts of survivors are from the toxicity check (mostly the fifth day) where no day follows; animals may have died later. Schedules are NCI's codes, taken here to give the interval after Q, in days (D) or hours (H), and the number of doses after X. Some schedules carry Z or #; the key to these is not given. Some molecules as drawn cover several salts, stereoisomers or complexes of the source; a dose is that of the sample tested.
# System: L1210 leukemia ip in BDF1 mice, survival T/C
# Experiment: NCI In Vivo Anticancer Drug Screen. Data for tumor model L1210 Leukemia (intraperitoneal) in B6D2F1 (BDF1) mice
# Conditions: T/C endpoint: mean survival time, higher T/C = longer survival
# [1] = dose: 25.0 mg/kg/injection, schedule: Q04DX002 (ip), vehicle: Klucel (hydroxypropylcellulose) (HPC)
# [2] = dose: 50.0 mg/kg/injection, schedule: Q04DX002 (ip), vehicle: Klucel (hydroxypropylcellulose) (HPC)
# [3] = dose: 100.0 mg/kg/injection, schedule: Q04DX002 (ip), vehicle: Klucel (hydroxypropylcellulose) (HPC)
# [4] = dose: 400.0 mg/kg/injection, schedule: Q04DX003 (ip), vehicle: saline with Tween-80
# [5] = dose: 200.0 mg/kg/injection, schedule: Q01DX001 (ip), vehicle: saline
# [6] = dose: 400.0 mg/kg/injection, schedule: Q01DX001 (ip), vehicle: saline
# [7] = dose: 400.0 mg/kg/injection, schedule: Q04DX003 (ip), vehicle: saline
# [8] = dose: 400.0 mg/kg/injection, schedule: Q01DX001 (ip), vehicle: other
compound,measurement,setting,value
CCCCCCCCCCCC[N+]1(CCCCCCCCCCCC)CCCC(C)C1 (centres undefined),survivor count,"dose: 12.0 mg/kg/injection, schedule: Q04DX002 (ip), vehicle: Klucel (hydroxypropylcellulose) (HPC)",0 of 3
same,survivor count,[1],0 of 3
same,survivor count,[2],0 of 3
same,survivor count,[3],0 of 3
C[CH2][Pb]([CH2]C)([CH2]C)[O]C(=O)CBr,survivor count,"dose: 6.25 mg/kg/injection, schedule: Q01DX009 (ip), vehicle: Klucel (hydroxypropylcellulose) (HPC)",5 of 6
same,survivor count,"dose: 12.5 mg/kg/injection, schedule: Q01DX009 (ip), vehicle: Klucel (hydroxypropylcellulose) (HPC)",4 of 6
same,survivor count,[1],2 of 3
same,survivor count,[2],0 of 3
same,survivor count,[3],1 of 3
same,survivor count,"dose: 200.0 mg/kg/injection, schedule: Q04DX002 (ip), vehicle: Klucel (hydroxypropylcellulose) (HPC)",0 of 3
same,survivor count,"dose: 400.0 mg/kg/injection, schedule: Q04DX002 (ip), vehicle: Klucel (hydroxypropylcellulose) (HPC)",0 of 3
NC(=S)N/N=C/c1ccc(C2CCNCC2)cc1,survivor count,"dose: 250.0 mg/kg/injection, schedule: Q01DX Z (ip), vehicle: methylcellulose (MC)",6 of 6
same,survivor count,"dose: 500.0 mg/kg/injection, schedule: Q01DX Z (ip), vehicle: methylcellulose (MC)",6 of 6
same,survivor count,"dose: 750.0 mg/kg/injection, schedule: Q01DX Z (ip), vehicle: methylcellulose (MC)",2 of 6
O=C(CCl)NC(CO)C(=O)O (centres undefined),survivor count,"dose: 400.0 mg/kg/injection, schedule: Q01DX009 (ip), vehicle: saline with Tween-80",0 of 6
same,survivor count,[4],6 of 6
COc1ccc(Cl)cc1/C=C\C=N\NC(=O)C[N+](C)(C)C,survivor count,"dose: 60.0 mg/kg/injection, schedule: Q01DX001 (ip), vehicle: carboxymethylcellulose (CMC)",2 of 6
same,survivor count,"dose: 75.0 mg/kg/injection, schedule: Q01DX001 (ip), vehicle: carboxymethylcellulose (CMC)",0 of 6
same,survivor count,"dose: 150.0 mg/kg/injection, schedule: Q01DX001 (ip), vehicle: carboxymethylcellulose (CMC)",0 of 6
same,survivor count,"dose: 300.0 mg/kg/injection, schedule: Q01DX001 (ip), vehicle: carboxymethylcellulose (CMC)",0 of 6
c1ccc(C2(C3(c4ccccc4)SCCCS3)CN2)cc1 (centres undefined),survivor count,"dose: 400.0 mg/kg/injection, schedule: Q01DX001 (ip), vehicle: Klucel (hydroxypropylcellulose) (HPC)",6 of 6
COc1ccc2c(=O)c(C)c(-c3ccccc3)oc2c1CN(C)C,survivor count,"dose: 6.25 mg/kg/injection, schedule: Q01DX009 (ip), vehicle: saline",0 of 6
same,survivor count,"dose: 6.25 mg/kg/injection, schedule: Q04DX003 (ip), vehicle: saline",0 of 6
same,survivor count,"dose: 10.0 mg/kg/injection, schedule: Q01DX001 (ip), vehicle: saline",0 of 6
same,survivor count,"dose: 12.5 mg/kg/injection, schedule: Q01DX009 (ip), vehicle: saline",0 of 6
same,survivor count,"dose: 12.5 mg/kg/injection, schedule: Q04DX003 (ip), vehicle: saline",1 of 6
same,survivor count,"dose: 20.0 mg/kg/injection, schedule: Q01DX001 (ip), vehicle: saline",0 of 6
same,survivor count,"dose: 25.0 mg/kg/injection, schedule: Q01DX009 (ip), vehicle: saline",0 of 6
same,survivor count,"dose: 25.0 mg/kg/injection, schedule: Q04DX003 (ip), vehicle: saline",0 of 4
same,survivor count,"dose: 40.0 mg/kg/injection, schedule: Q01DX001 (ip), vehicle: saline",0 of 6
same,survivor count,"dose: 50.0 mg/kg/injection, schedule: Q01DX009 (ip), vehicle: saline",0 of 6
same,survivor count,"dose: 50.0 mg/kg/injection, schedule: Q04DX003 (ip), vehicle: saline",0 of 4
same,survivor count,"dose: 80.0 mg/kg/injection, schedule: Q01DX001 (ip), vehicle: saline",0 of 6
same,survivor count,"dose: 100.0 mg/kg/injection, schedule: Q01DX001 (ip), vehicle: saline",0 of 6
same,survivor count,"dose: 100.0 mg/kg/injection, schedule: Q01DX009 (ip), vehicle: saline",0 of 6
same,survivor count,"dose: 100.0 mg/kg/injection, schedule: Q04DX003 (ip), vehicle: saline",0 of 4
same,survivor count,[5],0 of 6
same,survivor count,"dose: 200.0 mg/kg/injection, schedule: Q04DX003 (ip), vehicle: saline",0 of 4
same,survivor count,[6],0 of 6
same,survivor count,[7],0 of 4
O=C(O)C(Br)C(Br)C(=O)O (centres undefined),survivor count,"dose: 400.0 mg/kg/injection, schedule: Q04DX002 (ip), vehicle: saline",3 of 3
O=C(O)c1ccccc1N=Cc1ccccc1O.[Co],survivor count,[8],0 of 6
N#CC(SC(=N)N)c1ccccc1 (centres undefined),survivor count,[6],0 of 6
Cc1ccc(OC(=O)C(C(=O)Oc2ccc(C)cc2)C(=O)Oc2ccc(C)cc2)cc1,survivor count,"dose: 200.0 mg/kg/injection, schedule: Q01DX001 (ip), vehicle: saline with Tween-80",0 of 3
same,survivor count,"dose: 400.0 mg/kg/injection, schedule: Q01DX001 (ip), vehicle: saline with Tween-80",0 of 3
CC(=O)[O][Sn]([CH2]C1CCCCC1)([CH2]C1CCCCC1)[CH2]C1CCCCC1,survivor count,"dose: 25.0 mg/kg/injection, schedule: Q04DX002 (ip), vehicle: saline with Tween-80",1 of 3
same,survivor count,"dose: 100.0 mg/kg/injection, schedule: Q04DX002 (ip), vehicle: saline with Tween-80",0 of 3
same,survivor count,"dose: 200.0 mg/kg/injection, schedule: Q04DX002 (ip), vehicle: saline with Tween-80",0 of 3
same,survivor count,"dose: 400.0 mg/kg/injection, schedule: Q04DX002 (ip), vehicle: saline with Tween-80",0 of 3
C=COC(=O)NC(CCSC)C(=O)O (centres undefined),survivor count,[5],1 of 6
COc1ccc(C=O)c(Cl)c1OC,survivor count,"dose: 400.0 mg/kg/injection, schedule: Q01DX009 (ip), vehicle: Klucel (hydroxypropylcellulose) (HPC)",3 of 6
O=[N+]([O-])c1cc([N+](=O)[O-])cc(S(=O)(=O)O)c1,survivor count,"dose: 200.0 mg/kg/injection, schedule: Q01DX009 (ip), vehicle: saline",1 of 6
same,survivor count,"dose: 400.0 mg/kg/injection, schedule: Q01DX009 (ip), vehicle: saline",0 of 6
same,survivor count,[7],2 of 6
O=C1[O][Hg][c]2cccc3cccc1c23,survivor count,"dose: 20.0 mg/kg/injection, schedule: Q04DX003 (ip), vehicle: saline with Tween-80",2 of 6
same,survivor count,"dose: 100.0 mg/kg/injection, schedule: Q04DX003 (ip), vehicle: saline with Tween-80",0 of 6
same,survivor count,"dose: 200.0 mg/kg/injection, schedule: Q04DX003 (ip), vehicle: saline with Tween-80",0 of 6
same,survivor count,[4],0 of 6
CCc1cc2c([nH]c3ccccc32)c(C)c1CCN(C)C,survivor count,[8],0 of 4
O=C(CNC(=O)c1ccc(Cl)cc1Cl)N/N=C/c1ccc(Cl)c(Cl)c1,survivor count,"dose: 12.5 mg/kg/injection, schedule: Q01DX009 (ip), vehicle: saline with Tween-80",3 of 3
same,survivor count,"dose: 50.0 mg/kg/injection, schedule: Q01DX009 (ip), vehicle: saline with Tween-80",3 of 3
same,survivor count,"dose: 200.0 mg/kg/injection, schedule: Q01DX009 (ip), vehicle: saline with Tween-80",1 of 3
CCCCCCCCCCNCCS,survivor count,"dose: 20.0 mg/kg/injection, schedule: Q01DX001 (ip), vehicle: carboxymethylcellulose (CMC)",1 of 4
same,survivor count,"dose: 40.0 mg/kg/injection, schedule: Q01DX001 (ip), vehicle: carboxymethylcellulose (CMC)",1 of 4
same,survivor count,"dose: 50.0 mg/kg/injection, schedule: Q01DX001 (ip), vehicle: carboxymethylcellulose (CMC)",1 of 4
same,survivor count,"dose: 80.0 mg/kg/injection, schedule: Q01DX001 (ip), vehicle: carboxymethylcellulose (CMC)",0 of 4
same,survivor count,"dose: 100.0 mg/kg/injection, schedule: Q01DX001 (ip), vehicle: carboxymethylcellulose (CMC)",0 of 4
same,survivor count,"dose: 200.0 mg/kg/injection, schedule: Q01DX001 (ip), vehicle: carboxymethylcellulose (CMC)",0 of 4
same,survivor count,"dose: 400.0 mg/kg/injection, schedule: Q01DX001 (ip), vehicle: carboxymethylcellulose (CMC)",0 of 4
